A negative result means that nothing was seen under these conditions. Protein sequences can lack the tags named with them. For at least one entry, the source does not settle the construct or the ends of the probe. The comparison behind a weaker result is the experiment's own reference, which may not be listed here. The direction of at least one scale is not stated here.

The results in this text go back to PMC7380579.

In this data set the target is T1, PerR (PerR:Zn,Mn) (UniProt A0ABN4B511).
T1 sequence (looked up): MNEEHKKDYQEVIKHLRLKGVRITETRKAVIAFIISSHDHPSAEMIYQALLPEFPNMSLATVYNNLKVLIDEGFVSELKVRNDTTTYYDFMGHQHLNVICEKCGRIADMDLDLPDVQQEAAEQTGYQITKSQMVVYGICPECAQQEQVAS
Put plainly: EMSA. The settings on record: 10 mM Tris-HCl pH 8.0, 50 mM NaCl, 5% glycerol, 10 ug/ml BSA, 2 ng/ul poly(dI-dC), 0.5 mM DTT, Chelex-treated, 0.2 nM probe, 30 C, 6% PAGE on ice, recombinant protein, label: 5'-biotin (forward primer), probe letters rebuilt from the primers and the genome.

Take “AATGACCAAGCCTAGAAATGAGGCTAAAATCGTTCCGACCAGAAAAAAGTATAGATGTATCATACTTATTTATTCGTGATTTTGAGCAGAAAAATTTTGAAATTTTACAACTTTTCTAATAAAGTAAAATTTTTAGTTTTAATACTTGACTTTCTTAATTAGAAGCATTATAATTAAAACATAATCAATAAAGATTAGAATGATTACAAATAAAAAGAGAGGTATCATT (double strand) [dpr promoter]”: for the setting “PerR:Zn,Mn (50 nM) pretreated with 50 uM H2O2, 30 min, 1 mM …, residues 1-150, protein details: GST tag (pGEX4T-1) removed with thrombin”, the binding result is “binds more weakly”. In addition, the binding signal (% of untreated complex) (PerR:Zn,Mn (50 nM) pretreated with 200 uM H2O2, 5 min (text: ~59% inactivated), 1 mM MnCl2, 30 min, residues 1-150, protein details: GST tag (pGEX4T-1) removed with thrombin) was 41.

In the case of “ATAGCTTCTGAAAGAGGGGACTGCCAAATAGAAAGGCCTCCTCAAAAAGACTCTGGCGGGTTGATTCATACGGTAATGACACCATTTCTGCTAGAAAAACTGTATCGAGAGTAGCTTGAGACCAGCCGAGCGCTTGTAATTCTGTATAGCATTGCTCTATTTCTACTTTCATCACCATCCACATCCATCATATAAAATTTCTTCAGTACCGTTCGAGGCTTCGCTAGCAGGCTCATGCAGCCTTCGATACCTCTCCTATTTACCTCTAAATATGCCAAAATTTCAGCTAAAAGTCAATGTACAAAGGAACATCCAAGCTCAAATTGTATTCTTTCGGCATTTTTTGCTATACTAGTCTTAGGAAAACAACGAGGACTGAAAATGACGCCAAATAAAG (double strand) [mntR promoter]”, the binding result (1 mM Mn2+, PerR 0-200 nM, 1 mM MnCl2, 30 min, residues 1-150, protein details: GST tag (pGEX4T-1) removed with thrombin) is “no binding”.
